Measurements as given in PubChem BioAssay AID485314 (National Center for Advancing Translational Sciences (NCATS), 2010).
The whole screen tested about 340,000 compounds, of which about 4,500 (1.3%) were called active. The shares of active, inactive and inconclusive entries below differ from those in the screen. The call rests on the fitted dose curve; in most records, active means well fitted inhibition curve with a large enough effect; inconclusive means small, poorly fitted or top-dose-only effect, or another doubt; inactive means no such curve, though single readings can be large or run the other way. A potency beside an inconclusive call is a rough fit, not a confirmed value.

Target: DNA polymerase beta (Homo sapiens) (UniProt P06746)
Test: qHTS Assay for Inhibitors of DNA Polymerase Beta
Conditions: Pol beta primer extension/strand displacement, fluorescence kinetic; series mostly up to 114 µM
Method in brief: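 Values derive from four-parameter Hill fits of normalized kinetic data: reads at 0 and 10 min following addition of 50 nM substrate to 10 nM Pol beta preincubated 15 min with compound.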
Potency means the concentration at half of the fitted maximal effect.

SMILES	Potency
CN1CCN(CC#CCn2c3ccccc3c3ccccc32)CC1	inconclusive: 89.1 µM [inhibitor, single point]
COc1ccc(OCC(=O)Nc2nnc(S(=O)(=O)N3CCc4ccccc43)s2)cc1	inactive
CCOC(=O)C1CCN(C(=O)c2ccc(Br)o2)CC1	inconclusive: 89.1 µM [inhibitor, single point]
COc1ccc2occ(CC(=O)Nc3ccc(S(=O)(=O)Nc4nccc(C)n4)cc3)c2c1	inconclusive: 15.8 µM [inhibitor, partial curve]
CC(=O)NS(=O)(=O)c1ccc(NC(=O)c2cccc(S(=O)(=O)N3CCc4ccccc43)c2)cc1	inconclusive: 0.501 µM [inhibitor, full curve, poor fit]
Cc1cc(/C=C2\SC(=S)NC2=O)c(C)n1C	active: 39.8 µM
C#CCn1c(C2CC(=O)N(c3ccc(OC)cc3)C2)nc2ccccc21 (centres undefined)	inactive
CCOc1ccc(C(=O)c2cn(CC(=O)Nc3ccc(OC)cc3)c3cc4c(cc3c2=O)OCCO4)cc1	inconclusive: 89.1 µM [inhibitor, single point]
COc1ccc(CNc2nc(SCc3ccc(Cl)cc3)nc3ccccc23)cc1	inconclusive: 89.1 µM [inhibitor, single point]
COc1cc(NS(=O)(=O)c2ccc(NC(=S)NC(=O)/C=C/c3ccco3)cc2)ncn1	active: 17.8 µM
FCCCOc1ccc(-c2ccnc(-c3ccccc3)n2)cc1	inactive
Cc1nn(C)c(C)c1NC(=O)CSc1nc(-c2ccccc2Cl)nc2c1cnn2-c1ccccc1	inconclusive: 7.94 µM [inhibitor, full curve, poor fit]
COc1ccccc1C(=O)Oc1c(Sc2ccccc2)c(C)nn1C(C)(C)C	inactive
O=C1/C(=C\c2cccc(O)c2)SC(=S)N1Cc1ccccc1	inactive
CCNc1nc(NC(C)C)nc(Nn2cnnc2)n1	active: 35.5 µM
Cc1cccc(NC(=S)NC(C)(C)CC(C)(C)C)c1	inconclusive: 79.4 µM [inhibitor, partial curve, poor fit]
Cc1cc(C)cc(OCC(=O)Nc2nc3c(s2)CC(C(C)(C)C)CC3)c1 (centres undefined)	inconclusive: 89.1 µM [inhibitor, single point]
CCC(=O)N1CCc2cc(S(=O)(=O)NC(C(=O)NCCc3ccccc3)C(C)C)ccc21 (centres undefined)	inconclusive: 89.1 µM [inhibitor, single point]
COc1cc(C2C(C#N)=C(N)N(Nc3ccccc3)C3=C2C(=O)CC(C)(C)C3)ccc1OCc1ccccc1 (centres undefined)	inconclusive: 17.8 µM [inhibitor, partial curve, poor fit]

Another view of two compounds above.

| SMILES | Potency |
| --- | --- |
| Cc1cccc(NC(=S)NC(C)(C)CC(C)(C)C)c1 | inconclusive: 79.4 µM [inhibitor, partial curve, poor fit] |
| Cc1cc(C)cc(OCC(=O)Nc2nc3c(s2)CC(C(C)(C)C)CC3)c1 (centres undefined) | inconclusive: 89.1 µM [inhibitor, single point] |
